42 sequences from article PMC7819943, “Rice protein-binding microarrays: a tool to detect cis-acting elements near promoter regions in rice” can be followed below.

Sequences of proteins named here, by UniProt entry; tags and fusion partners are left off.
UniProt Q0JBA9, entry or part of it: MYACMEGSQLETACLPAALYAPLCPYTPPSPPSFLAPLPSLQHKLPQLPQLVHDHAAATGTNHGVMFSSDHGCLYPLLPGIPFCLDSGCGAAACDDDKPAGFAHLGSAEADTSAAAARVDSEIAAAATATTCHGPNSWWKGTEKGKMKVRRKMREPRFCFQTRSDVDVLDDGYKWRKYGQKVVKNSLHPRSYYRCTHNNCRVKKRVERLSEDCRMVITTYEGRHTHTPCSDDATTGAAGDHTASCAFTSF

The list shows a part of the results.

The experiment addresses OsWRKY34 (Oryza sativa, UniProt Q0JBA9 1-250). Nature of the experiment: protein-binding microarray (RPBM); PBS, 2% BSA, 51.3 ng/ul salmon testes DNA, 50 uM zinc acetate, 200 nM TF, 25 C, 1 h; high values mean tight binding. As to conditions: protein: recombinant; tags: N-terminal polyhistidine and DsRed monomer fusion (pET32a); label: CyDye5-dUTP incorporated in the synthesized complementary strand; 3' TTTTT single-stranded linker to array surface; dsDNA, one strand shown. In a few lines: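 In PBS with 2% BSA, salmon testes DNA and 50 µM zinc acetate, 200 nM protein was incubated on a custom Agilent array at 25 °C for 1 h and then washed off. The array had been made double-stranded by primer extension with Cy5-dUTP and blocked with 2% BSA. The proteins were transcription factors fused N-terminally to polyhistidine and DsRed, expressed in E. coli BL21-CodonPlus and purified on Ni–NTA. The binding signal is per-feature fluorescence intensity (arbitrary units) from an Axon 4000B scanner.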
Regarding “CTCTCTCTCTCTCTCTCTCTCTATATATATATATATATATCGGAGTCACCTAGTGCAG”, the binding signal was 10100 fluorescence intensity (a.u.).

On to “GGACCGAGGGAGTATTTGTTTCTCCAGTGTCTCCGCTCTGCGGAGTCACCTAGTGCAG”, for which the binding signal is 8190 fluorescence intensity (a.u.).

For the sequence “TGGGCTCACTTTTTTTTTCGCCGATTTATAATTATAAAATCGGAGTCACCTAGTGCAG”, the binding signal is 9160 fluorescence intensity (a.u.).

As for “AAACCGACTTGGCTTTCGCTACGCCCAGCTTCGGCCGCGCCGGAGTCACCTAGTGCAG”, the binding signal is 8200 fluorescence intensity (a.u.).

In the case of “TTACTATGTTTCACTTTTCTTTACTATTTAAAAAGTTTCTCGGAGTCACCTAGTGCAG”, the binding signal is 8360 fluorescence intensity (a.u.).

Regarding “TTGGATGTTCTTCCCGTTGTTGTGTTTTATCATGTGCCTTCGGAGTCACCTAGTGCAG”, the binding signal is 9330 fluorescence intensity (a.u.).

Take “CCCATCTCACCAGTGACGTGCTTCTTCATCATCCCTATATCGGAGTCACCTAGTGCAG”: the binding signal is 11600 fluorescence intensity (a.u.).

Take “TGTGAGGCATCATCTTATTCAACTGTGTATTAATTTTTTTCGGAGTCACCTAGTGCAG”: the binding signal is 9100 fluorescence intensity (a.u.).

As for “ACTAGCAAAAACCGTTGACTTAGTCTATAGCATTCCTTGTCGGAGTCACCTAGTGCAG”, the binding signal is 12600 fluorescence intensity (a.u.).

For the sequence “CCTCTTGTCGCCACGTCCCACGCTACTCCTTTTTAAATGCCGGAGTCACCTAGTGCAG”, the binding signal is 12100 fluorescence intensity (a.u.).

For “ATGGACGACGCCACGAGCTCGCTCTCACACGCGCCATCAGCGGAGTCACCTAGTGCAG”, the binding signal is 9470 fluorescence intensity (a.u.).

Take “TTTCCATTGTGTTCTGGTTGTTGTAAGGTTTTCAAAGAATCGGAGTCACCTAGTGCAG”: the binding signal is 9100 fluorescence intensity (a.u.).

Turning to “TATCATCTACCCCAAAGGTTTGGTTGTTCCTATTTCCTATCGGAGTCACCTAGTGCAG”, the binding signal is 13100 fluorescence intensity (a.u.).

As for “CTCTCGTCTCCCGATCCCGCACGCGGCCAGCTACAAATACCGGAGTCACCTAGTGCAG”, the binding signal is 8890 fluorescence intensity (a.u.).

For “GTAGGTGGATATGATAATGAATCTTCTGTCAGTTTTTTTTCGGAGTCACCTAGTGCAG”, the binding signal was 10300 fluorescence intensity (a.u.).

Turning to “TTGACCTTGCTCTTATATAGCAGACCATTTTTCTGCTGCTCGGAGTCACCTAGTGCAG”, the binding signal is 9090 fluorescence intensity (a.u.).

“TGTCATGCATAACAACCATACTCCTTTATCTTTCTTTTATCGGAGTCACCTAGTGCAG”: the binding signal is 9010 fluorescence intensity (a.u.).

Turning to “AGTATTTTGACTTTGACCAAAGTCAAAACAACTTATAACTCGGAGTCACCTAGTGCAG”, the binding signal is 12500 fluorescence intensity (a.u.).

In the case of “TGCTCTTATTGCTGCTATTATATGGCCATGCTGTTGCTACCGGAGTCACCTAGTGCAG”, the binding signal is 9740 fluorescence intensity (a.u.).

“GAGGTGGGTGTGGAACTGTGGATGCGGGTCGGGGAGATCGCGGAGTCACCTAGTGCAG”: the binding signal was 16900 fluorescence intensity (a.u.).

As for “AGCACAACGACTAACCTCTTGCCTTATCCATCTACTAGTACGGAGTCACCTAGTGCAG”, the binding signal is 8890 fluorescence intensity (a.u.).

“CCCGATCATCTGTTGGGCCTAATTTGATCTCACTTTTTTTCGGAGTCACCTAGTGCAG”: the binding signal was 8230 fluorescence intensity (a.u.).

Take “GCTCGCCATCGCATCATGTACCCTCAATTTCGCTTCGCCACGGAGTCACCTAGTGCAG”: the binding signal is 11400 fluorescence intensity (a.u.).

Regarding “TTTACATCTAATATTTTTTATTTGGGGTTCAGCGGGCATTCGGAGTCACCTAGTGCAG”, the binding signal was 11100 fluorescence intensity (a.u.).

For the sequence “TTTTTCTCAACTAAACTGTCCCATTGTGTTGTGCGTTCTCCGGAGTCACCTAGTGCAG”, the binding signal is 11600 fluorescence intensity (a.u.).

Take “CGAGTTCCTCGTGCGCCAATTATACTATACCTCTACATATCGGAGTCACCTAGTGCAG”: the binding signal was 8800 fluorescence intensity (a.u.).

For “GTCTTTTTGTTGGTTGGTTTTTATTAACGATGGTTTGGTTCGGAGTCACCTAGTGCAG”, the binding signal was 9920 fluorescence intensity (a.u.).

On to “TCTCTTTCTATAATATATCAACGACTTTATCAATTGTTCTCGGAGTCACCTAGTGCAG”, for which the binding signal is 8620 fluorescence intensity (a.u.).

As to “CTCGTCGACACCTGCGGCCTCACCGCCGCCCAGGCGCTCACGGAGTCACCTAGTGCAG”, the binding signal was 8430 fluorescence intensity (a.u.).

For “CCATTCCCACTATTATCATCGATTGATACATAGAGCATGCCGGAGTCACCTAGTGCAG”, the binding signal was 8250 fluorescence intensity (a.u.).

Consider “ATCAATCCAAGTTTCATATTATGTTCATGAATCTCTTGTCCGGAGTCACCTAGTGCAG”, for which the binding signal was 8910 fluorescence intensity (a.u.).

In the case of “CTCGGTCGGCAGGCTTGGTATCAATCTTGGGAGGGGAAAACGGAGTCACCTAGTGCAG”, the binding signal was 11200 fluorescence intensity (a.u.).

For “TTGGCTGTATTATTAAACTTGCTCTTACTACTCCATCCGTCGGAGTCACCTAGTGCAG”, the binding signal was 8390 fluorescence intensity (a.u.).

Take “TCCGGGTCTTTCTCAATGCAACATCGTTCCATCGTCAAAACGGAGTCACCTAGTGCAG”: the binding signal was 10300 ± 164 fluorescence intensity (a.u.).

Consider “TCGTCACATGTCTCATCTCTGCAACCAACTTCTCTTTAGCCGGAGTCACCTAGTGCAG”, for which the binding signal was 9000 fluorescence intensity (a.u.).

Consider “CGGAGATCTTCAGAAACGAGTTATTTTTCCTCGCAAAACGCGGAGTCACCTAGTGCAG”, for which the binding signal was 8690 fluorescence intensity (a.u.).

Take “AGGGACACATGTTTTGCTTTTTTCTCAGAATTTTTTGAATCGGAGTCACCTAGTGCAG”: the binding signal was 8960 fluorescence intensity (a.u.).

In the case of “ATTTATCAAGAGAGTTGTTGGTTATGTGGGTTCAAGGATACGGAGTCACCTAGTGCAG”, the binding signal is 9460 fluorescence intensity (a.u.).

As to “GATTATGGATGGGTTTTTATTAATAGTCTACGTTTAATATCGGAGTCACCTAGTGCAG”, the binding signal is 8160 fluorescence intensity (a.u.).

Take “TATTATTGCGTTCTCTTGTCTATGTTGATGCTTATTCTATCGGAGTCACCTAGTGCAG”: the binding signal is 11400 fluorescence intensity (a.u.).

For the sequence “TGCTTGTGTTTTTCTTTCTTCATCAGCTTATTCTTATTTTCGGAGTCACCTAGTGCAG”, the binding signal is 9430 fluorescence intensity (a.u.).

For “AGCCACTGAAGGATAATGTACTACTTTTTTTTACCTTTTACGGAGTCACCTAGTGCAG”, the binding signal is 9460 fluorescence intensity (a.u.).
